From PMC12229022
Like-named read-outs stand apart in the source and are kept apart here. No constants are given. Whether binding was seen depends on the method and setting. Binding seen in cells or lysates may run through a third protein. Here binding means that the protein was enriched with, or labelled near, the bait; the list need not be complete.

Protein sequences, listed by entry. Tags and fused reporters are not part of them.
UniProt Q96LD4: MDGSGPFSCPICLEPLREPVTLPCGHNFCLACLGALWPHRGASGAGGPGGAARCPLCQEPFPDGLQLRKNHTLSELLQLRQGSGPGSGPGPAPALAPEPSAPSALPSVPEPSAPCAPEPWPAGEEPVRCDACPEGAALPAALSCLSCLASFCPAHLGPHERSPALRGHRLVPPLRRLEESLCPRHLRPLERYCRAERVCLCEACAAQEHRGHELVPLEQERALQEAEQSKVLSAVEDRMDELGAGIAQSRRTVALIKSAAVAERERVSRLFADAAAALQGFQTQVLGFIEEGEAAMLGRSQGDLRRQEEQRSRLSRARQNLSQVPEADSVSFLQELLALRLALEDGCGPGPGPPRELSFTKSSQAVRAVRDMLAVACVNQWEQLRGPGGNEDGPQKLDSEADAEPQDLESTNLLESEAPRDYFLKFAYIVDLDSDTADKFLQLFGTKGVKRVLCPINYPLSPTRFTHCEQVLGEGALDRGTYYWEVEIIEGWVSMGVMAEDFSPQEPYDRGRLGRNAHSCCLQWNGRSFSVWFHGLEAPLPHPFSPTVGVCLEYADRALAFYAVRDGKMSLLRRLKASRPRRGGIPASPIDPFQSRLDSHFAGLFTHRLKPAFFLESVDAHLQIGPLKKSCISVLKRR
UniProt P49841: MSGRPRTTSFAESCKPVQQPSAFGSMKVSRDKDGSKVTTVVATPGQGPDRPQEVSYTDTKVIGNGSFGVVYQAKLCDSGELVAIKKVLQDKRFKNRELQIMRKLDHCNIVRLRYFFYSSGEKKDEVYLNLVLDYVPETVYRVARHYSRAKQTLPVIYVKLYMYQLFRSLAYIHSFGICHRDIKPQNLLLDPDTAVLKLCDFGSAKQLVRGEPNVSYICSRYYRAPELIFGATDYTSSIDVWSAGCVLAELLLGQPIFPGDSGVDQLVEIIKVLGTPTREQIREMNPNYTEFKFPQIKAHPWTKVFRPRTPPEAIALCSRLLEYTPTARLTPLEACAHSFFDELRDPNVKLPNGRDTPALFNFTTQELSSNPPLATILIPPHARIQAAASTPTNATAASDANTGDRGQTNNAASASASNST

B1: Adenosine deaminase acting on RNA (ADAR), endogenous (protein, UniProt P55265 1-1226)
chain: MNPRQGYSLSGYYTHPFQGYEHRQLRYQQPGPGSSPSSFLLKQIEFLKGQLPEAPVIGKQTPSLPPSLPGLRPRFPVLLASSTRGRQVDIRGVPRGVHLRSQGLQRGFQHPSPRGRSLPQRGVDCLSSHFQELSIYQDQEQRILKFLEELGEGKATTAHDLSGKLGTPKKEINRVLYSLAKKGKLQKEAGTPPLWKIAVSTQAWNQHSGVVRPDGHSQGAPNSDPSLEPEDRNSTSVSEDLLEPFIAVSAQAWNQHSGVVRPDSHSQGSPNSDPGLEPEDSNSTSALEDPLEFLDMAEIKEKICDYLFNVSDSSALNLAKNIGLTKARDINAVLIDMERQGDVYRQGTTPPIWHLTDKKRERMQIKRNTNSVPETAPAAIPETKRNAEFLTCNIPTSNASNNMVTTEKVENGQEPVIKLENRQEARPEPARLKPPVHYNGPSKAGYVDFENGQWATDDIPDDLNSIRAAPGEFRAIMEMPSFYSHGLPRCSPYKKLTECQLKNPISGLLEYAQFASQTCEFNMIEQSGPPHEPRFKFQVVINGREFPPAEAGSKKVAKQDAAMKAMTILLEEAKAKDSGKSEESSHYSTEKESEKTAESQTPTPSATSFFSGKSPVTTLLECMHKLGNSCEFRLLSKEGPAHEPKFQYCVAVGAQTFPSVSAPSKKVAKQMAAEEAMKALHGEATNSMASDNQPEGMISESLDNLESMMPNKVRKIGELVRYLNTNPVGGLLEYARSHGFAAEFKLVDQSGPPHEPKFVYQAKVGGRWFPAVCAHSKKQGKQEAADAALRVLIGENEKAERMGFTEVTPVTGASLRRTMLLLSRSPEAQPKTLPLTGSTFHDQIAMLSHRCFNTLTNSFQPSLLGRKILAAIIMKKDSEDMGVVVSLGTGNRCVKGDSLSLKGETVNDCHAEIISRRGFIRFLYSELMKYNSQTAKDSIFEPAKGGEKLQIKKTVSFHLYISTAPCGDGALFDKSCSDRAMESTESRHYPVFENPKQGKLRTKVENGEGTIPVESSDIVPTWDGIRLGERLRTMSCSDKILRWNVLGLQGALLTHFLQPIYLKSVTLGYLFSQGHLTRAICCRVTRDGSAFEDGLRHPFIVNHPKVGRVSIYDSKRQSGKTKETSVNWCLADGYDLEILDGTRGTVDGPRNELSRVSKKNIFLLFKKLCSFRYRRDLLRLSYGEAKKAARDYETAKNYFKKGLKDMGYGNWISKPQEEKNFYLCPV

Tests used:
[1] = target: TRIM47 immunoprecipitated for mass spectrometry (TRIM47 complex from THJ-29 T cells) (UniProt Q96LD4); test: affinity purification with mass spectrometry; immunoprecipitate of the TRIM47 complex from THJ-29 T cells, trypsin digest, 5800 MALDI-TOF/TOF
[2] = target: TRIM47 immunoprecipitated for mass spectrometry (TRIM47 complex from THJ-29 T cells) (UniProt Q96LD4); test: as above; remark: listed apart in the source

| Molecule | binding [1] | binding [2] |
| --- | --- | --- |
| Glycogen synthase kinase-3β (GSK-3β) (from UniProt P49841 1-420) | binds | – |
| B1 | – | binds |
